# From article doi:10.1101/701953
# The chains behind the UniProt entries cited, without tags or fusion partners. Where a name states a change or a piece, a line headed by the entry shows the natural chain unless it says otherwise.
# UniProt Q13315: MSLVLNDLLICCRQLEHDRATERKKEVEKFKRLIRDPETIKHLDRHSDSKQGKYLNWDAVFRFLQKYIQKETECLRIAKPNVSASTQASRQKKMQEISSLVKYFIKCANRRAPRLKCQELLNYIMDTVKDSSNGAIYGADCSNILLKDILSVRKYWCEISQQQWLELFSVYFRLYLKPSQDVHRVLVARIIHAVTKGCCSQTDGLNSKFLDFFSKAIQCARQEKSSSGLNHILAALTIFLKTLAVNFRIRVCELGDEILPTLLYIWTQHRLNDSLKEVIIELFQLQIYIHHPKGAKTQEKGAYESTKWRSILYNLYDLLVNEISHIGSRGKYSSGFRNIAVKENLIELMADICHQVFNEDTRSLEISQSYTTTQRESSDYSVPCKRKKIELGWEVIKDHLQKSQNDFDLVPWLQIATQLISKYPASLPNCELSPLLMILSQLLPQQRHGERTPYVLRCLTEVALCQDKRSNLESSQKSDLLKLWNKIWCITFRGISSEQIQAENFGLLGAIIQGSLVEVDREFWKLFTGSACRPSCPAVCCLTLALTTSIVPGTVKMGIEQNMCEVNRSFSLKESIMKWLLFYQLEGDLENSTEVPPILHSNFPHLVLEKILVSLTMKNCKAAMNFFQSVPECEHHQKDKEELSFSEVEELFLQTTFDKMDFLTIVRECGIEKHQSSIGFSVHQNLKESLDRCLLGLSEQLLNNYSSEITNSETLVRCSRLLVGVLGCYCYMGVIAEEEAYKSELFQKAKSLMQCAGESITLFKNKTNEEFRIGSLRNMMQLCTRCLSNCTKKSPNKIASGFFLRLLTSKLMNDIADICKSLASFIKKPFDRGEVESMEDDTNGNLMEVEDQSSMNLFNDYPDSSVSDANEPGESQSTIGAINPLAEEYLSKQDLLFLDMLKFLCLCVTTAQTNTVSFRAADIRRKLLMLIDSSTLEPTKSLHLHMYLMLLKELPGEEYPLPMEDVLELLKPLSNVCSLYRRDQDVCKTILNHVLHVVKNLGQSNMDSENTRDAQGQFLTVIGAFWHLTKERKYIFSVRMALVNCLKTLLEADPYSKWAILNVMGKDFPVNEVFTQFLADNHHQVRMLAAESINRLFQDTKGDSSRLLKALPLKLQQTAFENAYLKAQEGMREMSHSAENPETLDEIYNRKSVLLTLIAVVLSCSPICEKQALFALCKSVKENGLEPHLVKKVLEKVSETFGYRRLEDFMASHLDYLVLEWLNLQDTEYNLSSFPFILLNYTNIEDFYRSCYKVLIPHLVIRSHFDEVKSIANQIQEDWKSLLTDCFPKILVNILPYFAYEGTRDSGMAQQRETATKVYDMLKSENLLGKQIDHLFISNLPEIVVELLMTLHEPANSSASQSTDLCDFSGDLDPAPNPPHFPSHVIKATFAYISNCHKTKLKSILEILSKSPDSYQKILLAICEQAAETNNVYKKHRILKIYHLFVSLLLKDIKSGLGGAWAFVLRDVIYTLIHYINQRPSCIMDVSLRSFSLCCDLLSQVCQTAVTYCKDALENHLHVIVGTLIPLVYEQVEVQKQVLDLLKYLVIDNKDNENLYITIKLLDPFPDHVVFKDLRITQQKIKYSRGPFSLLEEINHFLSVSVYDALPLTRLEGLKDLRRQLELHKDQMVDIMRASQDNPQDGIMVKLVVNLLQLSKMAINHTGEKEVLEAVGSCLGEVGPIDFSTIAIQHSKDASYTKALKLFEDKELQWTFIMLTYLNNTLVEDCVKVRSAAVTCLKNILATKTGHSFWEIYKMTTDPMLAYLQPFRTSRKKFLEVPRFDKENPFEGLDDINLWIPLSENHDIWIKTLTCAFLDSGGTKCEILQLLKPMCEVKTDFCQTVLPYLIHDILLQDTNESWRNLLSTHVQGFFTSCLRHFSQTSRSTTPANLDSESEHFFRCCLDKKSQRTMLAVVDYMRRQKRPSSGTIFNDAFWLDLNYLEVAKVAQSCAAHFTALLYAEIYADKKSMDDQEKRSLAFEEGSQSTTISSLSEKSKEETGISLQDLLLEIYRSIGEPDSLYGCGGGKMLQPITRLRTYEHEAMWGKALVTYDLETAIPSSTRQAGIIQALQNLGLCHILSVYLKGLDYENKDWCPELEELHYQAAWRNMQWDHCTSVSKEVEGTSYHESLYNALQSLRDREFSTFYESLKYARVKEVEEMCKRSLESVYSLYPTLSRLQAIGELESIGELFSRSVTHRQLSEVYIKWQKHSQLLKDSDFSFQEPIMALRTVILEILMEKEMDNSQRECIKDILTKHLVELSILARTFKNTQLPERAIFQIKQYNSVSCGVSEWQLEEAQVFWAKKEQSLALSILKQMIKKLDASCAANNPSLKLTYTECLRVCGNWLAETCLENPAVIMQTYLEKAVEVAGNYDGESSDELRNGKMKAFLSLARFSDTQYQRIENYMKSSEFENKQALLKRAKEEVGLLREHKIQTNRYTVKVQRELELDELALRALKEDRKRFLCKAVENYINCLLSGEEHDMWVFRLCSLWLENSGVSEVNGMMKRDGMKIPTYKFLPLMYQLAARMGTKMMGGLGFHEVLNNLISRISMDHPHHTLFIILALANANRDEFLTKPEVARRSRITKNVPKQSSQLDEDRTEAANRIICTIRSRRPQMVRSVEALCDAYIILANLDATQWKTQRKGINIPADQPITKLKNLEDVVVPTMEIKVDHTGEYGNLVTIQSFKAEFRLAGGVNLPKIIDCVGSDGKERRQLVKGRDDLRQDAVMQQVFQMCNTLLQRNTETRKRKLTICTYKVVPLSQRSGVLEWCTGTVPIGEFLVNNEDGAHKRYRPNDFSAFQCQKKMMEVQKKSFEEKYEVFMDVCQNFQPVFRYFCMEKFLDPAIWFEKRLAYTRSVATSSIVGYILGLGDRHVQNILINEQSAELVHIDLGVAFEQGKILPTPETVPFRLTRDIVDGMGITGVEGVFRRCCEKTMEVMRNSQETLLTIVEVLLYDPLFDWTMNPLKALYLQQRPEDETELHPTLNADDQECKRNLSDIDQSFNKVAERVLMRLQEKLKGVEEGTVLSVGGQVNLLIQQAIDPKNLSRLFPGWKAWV
# UniProt P54253: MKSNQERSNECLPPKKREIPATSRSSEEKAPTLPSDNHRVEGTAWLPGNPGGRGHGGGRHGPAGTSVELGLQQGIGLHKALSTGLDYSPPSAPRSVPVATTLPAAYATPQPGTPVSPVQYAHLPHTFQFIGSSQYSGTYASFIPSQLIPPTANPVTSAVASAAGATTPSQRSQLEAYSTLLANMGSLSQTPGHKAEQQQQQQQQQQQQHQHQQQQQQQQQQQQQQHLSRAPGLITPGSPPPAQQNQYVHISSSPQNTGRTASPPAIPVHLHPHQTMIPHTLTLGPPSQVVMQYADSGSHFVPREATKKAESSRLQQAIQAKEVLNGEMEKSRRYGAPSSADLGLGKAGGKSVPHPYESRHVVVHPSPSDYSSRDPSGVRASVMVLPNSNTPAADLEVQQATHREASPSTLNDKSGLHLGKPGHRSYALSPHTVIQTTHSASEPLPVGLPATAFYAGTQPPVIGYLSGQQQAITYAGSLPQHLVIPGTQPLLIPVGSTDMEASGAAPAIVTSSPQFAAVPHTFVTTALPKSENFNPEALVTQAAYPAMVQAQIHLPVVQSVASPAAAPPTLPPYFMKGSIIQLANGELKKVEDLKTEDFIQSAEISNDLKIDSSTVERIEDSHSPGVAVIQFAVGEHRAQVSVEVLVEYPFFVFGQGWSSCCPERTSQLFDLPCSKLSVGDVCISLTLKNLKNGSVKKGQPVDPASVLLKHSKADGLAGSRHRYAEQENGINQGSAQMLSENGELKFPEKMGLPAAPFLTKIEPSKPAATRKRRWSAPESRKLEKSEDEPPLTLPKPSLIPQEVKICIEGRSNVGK
# These are yes or no findings as the source states them, for the method shown. Binding seen in cells or lysates may run through a third protein. Some binding calls cover weakened binding; strength is not graded here.
# Target: ataxia telangiectasia mutated (ATM) kinase (human (endogenous in RPE1)) (UniProt Q13315)
# Test: co-IP
substance,measurement,value
ataxin-1 (from UniProt P54253 1-815),binding,binds
